Assay results reported in PubChem BioAssay AID493014 (National Center for Advancing Translational Sciences (NCATS), 2011).
Some of the results follow. These are further read-outs of the screen, such as a control signal, another cell line or another target. No call is given for them. The list favours compounds with an active or inconclusive main result. Words in brackets tell the shape of the fitted curve; partial curves, single points and poor fits give uncertain potencies.

Assay: qHTS Assay to Find Inhibitors of Chronic Active B-Cell Receptor Signaling
Conditions: ABC-DLBCL IkBa-CBG/CBR reporter, luminescence ratio (green luciferase fused to IkBa over red control in TMD8 lymphoma cells), 4 h
How it was run: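 Concentration-response series (up to 46 uM) were applied to TMD8 dual-reporter cells for 4 h at 37C with doxycycline. Green/red ratio, after filter-overlap correction, defined %Activity; red signal alone was normalised to basal cells and zero luminescence.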

[1] = measured here: CBR red luminescence, cell number
[2] = measured here: IkBa-CBG green luminescence

Compound | AC50 [1] | AC50 [2]
C[C@H](CO)N1C[C@H](C)[C@@H](CN(C)Cc2ccc(Cl)c(Cl)c2)Oc2c(NS(=O)(=O)c3cccs3)cccc2C1=O | 23.1 µM [falling, partial curve, poor fit] | 
COc1cccc(Nc2nc(NCCO)c3ccccc3n2)c1 |  | 4.11 µM [rising, partial curve, poor fit]
Oc1ccc(/C=N/Nc2nccnc2Cl)cc1 | 9.2 µM [falling, partial curve] | 11.6 µM [rising, partial curve, poor fit]
CCCN(Cc1cc2ccc(C)cc2[nH]c1=O)S(=O)(=O)c1ccccc1 | 0.259 µM [falling, full curve] | 
Cc1ccc(NC(=O)c2cc(S(=O)(=O)N3CCCc4ccccc43)ccc2F)cc1F | 11.2 µM [falling, partial curve, poor fit] | 
CCN(Cc1ccncc1)C(=S)Nc1ccc(Cl)cc1 | 12.6 µM [rising, single point] | 
Cc1ccc(C)c(N2C(=O)CN=C2Nc2ccccc2Cl)c1 | 0.00461 µM [rising, full curve, poor fit] | 
O=C(Cc1ccccc1[N+](=O)[O-])Nc1ccc(S(=O)(=O)N2CCCC2)cc1 | 35.5 µM [rising, single point] | 
COc1ccc(S(=O)(=O)NCC2CCCN(C(=O)c3cccnc3)C2)cc1 (configuration not stated) | 0.708 µM [falling, full curve, poor fit] | 
COc1ccc(-c2noc(N3CCC(C(=O)Nc4ccc(F)cc4F)CC3)n2)cc1 | 35.5 µM [falling, single point] | 
O=C(CN1CCN(Cc2ccccc2)CC1)c1ccccc1 | 23.1 µM [rising, single point] | 
COc1ccc(-c2cc3c(=O)n(CC(=O)N4CCN(C)CC4)ncn3n2)cc1 | 0.112 µM [rising, full curve, poor fit] | 
CN(C)c1ccc(N=Nc2ccccc2C(=O)OCC(=O)NC2CCCC2)cc1 | 2.31 µM [rising, partial curve, poor fit] | 
CCN(c1ccccc1)S(=O)(=O)c1ccc(OC)c(NC(=O)CNCCc2ccccc2)c1 | 11.2 µM [falling, partial curve, poor fit] | 
CCC(C(=O)OCc1csc(CC(=O)Nc2ccccc2C)n1)c1ccccc1 (configuration not stated) | 11.6 µM [falling, partial curve] | 
O=Cc1cc(N=Nc2cccc(C(=O)O)c2)ccc1O | 5.62 µM [falling, full curve] | 14.1 µM [rising, partial curve, poor fit]
O=C(c1ccco1)N1CCN(C(=O)C2CCCN(S(=O)(=O)Cc3ccccc3)C2)CC1 (configuration not stated) | 5.8 µM [rising, single point] | 
CCC(C)c1ccc(NC(=O)CN(C)CC(=O)Nc2cccc(OC)c2)cc1 (configuration not stated) | 35.5 µM [falling, single point] | 
CCCCCSc1nc(N2CCOCC2)c2c(c1C#N)CC(C)(C)OC2 | 8.91 µM [rising, partial curve] | 
CC(=O)c1ccc(NC(=O)c2ccc(NC(=O)CCS(=O)(=O)c3cccs3)cc2)cc1 | 12.6 µM [rising, single point] | 
Cc1ccccc1-n1c(SCC(=O)Nc2ccc3c(c2)OCO3)nnc1-c1ccccn1 | 10.3 µM [falling, partial curve, poor fit] | 

Compound | AC50 [1] | AC50 [2]
NNC(=O)c1ccc2[nH]c3c(c2c1)CCCC3 | 35.5 µM [falling, single point] | 
O=C(CSCc1nc2ccccc2[nH]1)N1CCN(c2ccc(F)cc2)CC1 | 7.08 µM [falling, full curve] | 
Cc1cc2cc(CCNS(C)(=O)=O)c(=O)[nH]c2cc1C | 6.31 µM [falling, single point] | 
CNc1oc(-c2ccccc2F)nc1S(=O)(=O)c1ccc(C)cc1 | 11.2 µM [falling, partial curve, poor fit] | 
O=C(Cc1ccccc1)NC(NC(=S)Nc1cc(Cl)ccc1Cl)C(Cl)(Cl)Cl (configuration not stated) | 10 µM [falling, partial curve] | 
O=C1/C(=C/c2cccnc2)CCC/C1=C\c1cccnc1 | 11.6 µM [falling, partial curve] | 2.06 µM [falling, partial curve, poor fit]
CCn1c2ccccc2c2cc(NC(=O)C(C)Oc3ccccc3)ccc21 (configuration not stated) | 11.2 µM [rising, partial curve, poor fit] | 
CN(C)S(=O)(=O)N1CCC(Oc2cccc(C(=O)NC3CCCCC3)c2)CC1 | 1.41 µM [falling, partial curve, poor fit] | 
Cc1nc(N2CCN(S(=O)(=O)c3ccccc3)CC2)c2cc(-c3ccccc3)sc2n1 | 18.4 µM [rising, partial curve, poor fit] | 
COC(=O)c1ccc2c(=O)[nH]c(COC(=O)c3c(-c4ccccc4Cl)noc3C)nc2c1 | 29.1 µM [falling, single point] | 
O=C(Nc1ccc(F)cc1)c1cc2c(s1)CCCC2 | 14.1 µM [falling, partial curve] | 
CCC/C=N/NC(=O)c1ccccc1O | 1.78 µM [falling, full curve] | 
COc1ccccc1CNC(=O)C1CC(c2ccc([N+](=O)[O-])cc2)=NO1 (configuration not stated) | 11.2 µM [falling, single point] | 
CCOC(=O)N1CCN(c2nc3ccccc3nc2C(C#N)S(=O)(=O)c2ccc(C)cc2)CC1 (configuration not stated) | 6.51 µM [rising, single point] | 
Cc1cc(Nc2ccc(C(=O)O)cc2)nc(N)n1 | 15.8 µM [falling, single point] | 
CC1=NN(C(=S)Nc2ccccc2)C(c2ccccc2)C1 (configuration not stated) | 20.6 µM [rising, partial curve] | 
COc1ccc2[nH]c3ccc(OC)cc3c2c1 | 4.47 µM [rising, partial curve, poor fit] | 
O=C(/C=C/c1cccc([N+](=O)[O-])c1)NC(=S)Nc1cccc(NC(=O)c2ccccc2Cl)c1 | 13 µM [falling, partial curve] | 
Cc1ccc(-c2noc(C3CCCCC3)n2)cc1 | 3.16 µM [rising, full curve] | 
COc1ccc(/C=C2\SC(=S)N(CCCC(=O)N3CCOCC3)C2=O)cc1OC | 8.91 µM [falling, partial curve] | 
CCC(=O)OCCNc1cc(SCCC(=O)OC)c2nonc2c1[N+](=O)[O-] | 16.4 µM [falling, single point] | 

Another view of part of the listing above:
Compound	AC50 [1]	AC50 [2]
COC(=O)c1ccc2c(=O)[nH]c(COC(=O)c3c(-c4ccccc4Cl)noc3C)nc2c1	29.1 µM [falling, single point]	
O=C(Nc1ccc(F)cc1)c1cc2c(s1)CCCC2	14.1 µM [falling, partial curve]	

Rewritten with each value named: 2 of the compounds above.
Cc1nc(N2CCN(S(=O)(=O)c3ccccc3)CC2)c2cc(-c3ccccc3)sc2n1
  AC50 [1]: 18.4 µM [rising, partial curve, poor fit]
COC(=O)c1ccc2c(=O)[nH]c(COC(=O)c3c(-c4ccccc4Cl)noc3C)nc2c1
  AC50 [1]: 29.1 µM [falling, single point]

Further entries

Compound | AC50 [1] | AC50 [2]
O=C(Nc1ccon1)c1cc2c(s1)CCCC2 | 29.1 µM [falling, partial curve, poor fit] | 
O=C(CSc1ccc(C(F)(F)F)cn1)Nc1ccccc1 | 3.16 µM [falling, partial curve] | 
Cc1sc2nc(SCC(=O)c3cc(C)n(CC4CCCO4)c3C)n(C(C)C)c(=O)c2c1C (configuration not stated) | 8.91 µM [rising, partial curve, poor fit] | 
CCOC(=O)c1sc(-c2ccc(OC)cc2)cc1N | 2.91 µM [rising, partial curve] | 
COc1ccc(N2CCN(C(=O)Cc3nn(C)c(=O)c4ccccc34)CC2)cc1 | 1.84 µM [rising, full curve, poor fit] | 
COc1ccccc1C(=O)Oc1ccc(C(C)C)cc1 | 14.6 µM [falling, single point] | 
N#CCSc1nnc(COc2cccc3ccccc23)n1-c1cccc(Cl)c1 | 20 µM [falling, single point] | 
OC1(C2(O)CC(c3ccccc3)ON2)CCCCC1 (configuration not stated) | 28.2 µM [falling, single point] | 
CCOC(=O)c1cccc(NC(=O)c2cc3sccc3n2C)c1 | 16.4 µM [falling, partial curve] | 
COc1ccc(C2=NOC(C(=O)O)C2)cc1 (configuration not stated) | 0.58 µM [falling, partial curve, poor fit] | 
O=C(Nc1ccccc1C(=O)O)c1ccc(NC(=O)C2CCCO2)cc1 (configuration not stated) | 11.2 µM [falling, partial curve, poor fit] | 
NC(=S)N/N=C/c1ccc2cccc(OCc3ccccc3)c2n1 | 3.55 µM [falling, partial curve, poor fit] | 
COc1cccc2cc(CC(=O)c3ccc(C)c(C)c3)c(=O)oc12 | 3.98 µM [falling, partial curve, poor fit] | 
O=C(c1ccccc1Cl)N1N=C(c2ccc(Br)cc2)CC1c1nc2ccccc2[nH]1 (configuration not stated) | 14.1 µM [rising, single point] | 
Cc1ccc(/C=C2\SC(=S)N(CCCC(=O)N3CCOCC3)C2=O)cc1 | 0.562 µM [falling, full curve] | 
COc1ccc(-c2nn(-c3ccccc3)cc2C(=O)NC(=S)NNC(=O)c2ccncc2)cc1 | 35.5 µM [rising, single point] | 11.2 µM [falling, partial curve]
COc1ccc(Nc2nnc(SCC(=O)/C=C3/N(C)c4ccccc4C3(C)C)s2)cc1 | 23.1 µM [falling, partial curve, poor fit] | 
O=C(/C=C/c1ccccc1)c1ccc(NC2=NCCCS2)cc1 | 29.1 µM [falling, single point] | 29.1 µM [falling, partial curve, poor fit]
COc1ccc(NC(=O)Cc2nc3ccccc3[nH]2)cc1 | 11.2 µM [rising, partial curve] | 
COc1cc([N+](=O)[O-])cc(/C=N/NC(=O)Cn2cncn2)c1O | 11.2 µM [falling, partial curve, poor fit] | 
